Laboratory results from paper PMC7324161.
No constants are given. Whether binding was seen depends on the method and setting. For some assays here: In cells and extracts the contact can be indirect. Some entries that bind do so weakly or less than the wild type. For some assays here: Sequences can lack the tags named with a protein. Values belong to the binder of their own block, whether it stands above or below them.

Assays:
His-SIRT1 (human) = His-SIRT1 (human) (UniProt Q96EB6); assay: pull-down; GST pulldown in vitro between GST-SIRT6 and His-SIRT1 in the presence of 10 μM K33ac peptide; both purified
[1] = molecular target: SIRT6 (endogenous) (human (endogenous in HEK293 and HeLa)), Q8N6T7; assay: co-IP; endogenous proteins in HeLa cells; anti-SIRT6 or anti-SIRT1 immunoprecipitates blotted for the other; details: remark: other sources report otherwise
[2] = molecular target: FLAG-SIRT6 (human), Q8N6T7; assay: co-IP; HEK293 cells transfected with FLAG-SIRT6 or FLAG-SIRT1; anti-FLAG M2 agarose at 4°C overnight, lysis buffer 50 mM Tris-HCl pH 7.4, 200 mM NaCl, 0.2% NP40; blot for the endogenous partner; also with CPT (1 μM, 1 hr), which enhanced the interaction; details: remark: other sources report otherwise
[3] = molecular target: GST-SIRT6 (human), Q8N6T7; assay: pull-down; GST pulldown in vitro between GST-SIRT6 (WT, ΔN, ΔC) and His-SIRT1, without peptide; both purified; details: remark: other sources report otherwise
[4] = molecular target: GST-SIRT6 (human), Q8N6T7; assay: pull-down; GST pulldown in vitro between GST-SIRT6 and His-SIRT1 in the presence of 10 μM K33ac peptide; both purified; details: remark: other sources report otherwise

binding (His-SIRT1 (human)): binds
Binder: PEELERKVWELARL (acetyl-lysine at K33 (K(ac))) [K33ac peptide]

binding [1]: binds | binding [2]: binds
B1: SIRT1 (endogenous), Q96EB6 1-747 (protein)
chain: MADEAALALQPGGSPSAAGADREAASSPAGEPLRKRPRRDGPGLERSPGEPGGAAPEREVPAAARGCPGAAAAALWREAEAEAAAAGGEQEAQATAAAGEGDNGPGLQGPSREPPLADNLYDEDDDDEGEEEEEAAAAAIGYRDNLLFGDEIITNGFHSCESDEEDRASHASSSDWTPRPRIGPYTFVQQHLMIGTDPRTILKDLLPETIPPPELDDMTLWQIVINILSEPPKRKKRKDINTIEDAVKLLQECKKIIVLTGAGVSVSCGIPDFRSRDGIYARLAVDFPDLPDPQAMFDIEYFRKDPRPFFKFAKEIYPGQFQPSLCHKFIALSDKEGKLLRNYTQNIDTLEQVAGIQRIIQCHGSFATASCLICKYKVDCEAVRGDIFNQVVPRCPRCPADEPLAIMKPEIVFFGENLPEQFHRAMKYDKDEVDLLIVIGSSLKVRPVALIPSSIPHEVPQILINREPLPHLHFDVELLGDCDVIINELCHRLGGEYAKLCCNPVKLSEITEKPPRTQKELAYLSELPPTPLHVSEDSSSPERTSPPDSSVIVTLLDQAAKSNDDLDVSESKGCMEEKPQEVQTSRNVESIAEQMENPDLKNVGSSTGEKNERTSVAGTVRKCWPNRVAKEQISRRLDGNQYLFLPPNRYIFHGAEVYSDSEDDVLSSSSCGSNSDSGTCQSPSLEEPMEDESEIEEFYNGLEDEPDVPERAGGAGFGTDGDDQEAINEAISVKQEVTDMNYPSNKS

binding [3]: binds | binding [4]: binds
B2: His-SIRT1, Q96EB6 1-747 (protein)
chain: MADEAALALQPGGSPSAAGADREAASSPAGEPLRKRPRRDGPGLERSPGEPGGAAPEREVPAAARGCPGAAAAALWREAEAEAAAAGGEQEAQATAAAGEGDNGPGLQGPSREPPLADNLYDEDDDDEGEEEEEAAAAAIGYRDNLLFGDEIITNGFHSCESDEEDRASHASSSDWTPRPRIGPYTFVQQHLMIGTDPRTILKDLLPETIPPPELDDMTLWQIVINILSEPPKRKKRKDINTIEDAVKLLQECKKIIVLTGAGVSVSCGIPDFRSRDGIYARLAVDFPDLPDPQAMFDIEYFRKDPRPFFKFAKEIYPGQFQPSLCHKFIALSDKEGKLLRNYTQNIDTLEQVAGIQRIIQCHGSFATASCLICKYKVDCEAVRGDIFNQVVPRCPRCPADEPLAIMKPEIVFFGENLPEQFHRAMKYDKDEVDLLIVIGSSLKVRPVALIPSSIPHEVPQILINREPLPHLHFDVELLGDCDVIINELCHRLGGEYAKLCCNPVKLSEITEKPPRTQKELAYLSELPPTPLHVSEDSSSPERTSPPDSSVIVTLLDQAAKSNDDLDVSESKGCMEEKPQEVQTSRNVESIAEQMENPDLKNVGSSTGEKNERTSVAGTVRKCWPNRVAKEQISRRLDGNQYLFLPPNRYIFHGAEVYSDSEDDVLSSSSCGSNSDSGTCQSPSLEEPMEDESEIEEFYNGLEDEPDVPERAGGAGFGTDGDDQEAINEAISVKQEVTDMNYPSNKS
